Assay results reported in paper PMC9927256, “Structural and Functional Characterization of Rv0792c from Mycobacterium tuberculosis: Identifying Small Molecule Inhibitor against HutC Protein” (Microbiology Spectrum, 2022).
These are yes or no findings as the source states them, for the method shown. Some entries that bind do so weakly or less than the wild type. Tags and fused reporters may be left off the sequences shown.

Legend:
[1] = biological target: Rv0792c from Mycobacterium tuberculosis, wild type, with an amino-terminal histidine tag (Mycobacterium tuberculosis) (UniProt O86331); assay: SAXS; molar mixtures of Rv0792c with the ssDNA aptamers Rv0792c_1 or Rv0792c_5; mass from the scattering data; both purified
[2] = biological target: Rv0792c from Mycobacterium tuberculosis, wild type, with an amino-terminal histidine tag (Mycobacterium tuberculosis) (UniProt O86331); assay: condition: only with the ssDNA aptamer Rv0792c_2 in a molar mixture; SAXS; molar mixture of Rv0792c with the ssDNA aptamer Rv0792c_2; mass from the scattering data; both purified

B1: Rv0792c from Mycobacterium tuberculosis, wild type, with an amino-terminal histidine tag (natural protein)
chain: MTSVKLDLDAADLRISRGSVPASTQLAEALKAQIIQQRLPRGGRLPSERELIDRSGLSRVTVRAAVGMLQRQGWLVRRQGLGTFVADPVEQELSCGVRTITEVLLSCGVTPQVDVLSHQTGPAPQRISETLGLVEVLCIRRRIRTGDQPLALVTAYLPPGVGPAVEPLLSGSADTETTYAMWERRLGVRIAQATHEIHAAGASPDVADALGLAVGSPVLVVDRTSYTNDGKPLEVVVFHHRPERYQFSVTLPRTLPGSGAGIIEKRDFA
notes: also called His6-Rv0792c; (His)6-Rv0792c; not shown: His6, N-terminal, kept
- binding [1]: binds
- binding [2]: no binding
